Data as given in patent US20100196361A1, “Method of inhibition of vascular development using an antibody” (DYAX CORP., priority 2003, published 2010).
No constants are given. Whether binding was seen depends on the method and setting. Some entries that bind do so weakly or less than the wild type.

Chains of the proteins cited; added tags and fusions are not shown. Lines headed by an entry give the natural chain unless they say otherwise; changes in a name come on top. Residues count along the entry.
UniProt P35590: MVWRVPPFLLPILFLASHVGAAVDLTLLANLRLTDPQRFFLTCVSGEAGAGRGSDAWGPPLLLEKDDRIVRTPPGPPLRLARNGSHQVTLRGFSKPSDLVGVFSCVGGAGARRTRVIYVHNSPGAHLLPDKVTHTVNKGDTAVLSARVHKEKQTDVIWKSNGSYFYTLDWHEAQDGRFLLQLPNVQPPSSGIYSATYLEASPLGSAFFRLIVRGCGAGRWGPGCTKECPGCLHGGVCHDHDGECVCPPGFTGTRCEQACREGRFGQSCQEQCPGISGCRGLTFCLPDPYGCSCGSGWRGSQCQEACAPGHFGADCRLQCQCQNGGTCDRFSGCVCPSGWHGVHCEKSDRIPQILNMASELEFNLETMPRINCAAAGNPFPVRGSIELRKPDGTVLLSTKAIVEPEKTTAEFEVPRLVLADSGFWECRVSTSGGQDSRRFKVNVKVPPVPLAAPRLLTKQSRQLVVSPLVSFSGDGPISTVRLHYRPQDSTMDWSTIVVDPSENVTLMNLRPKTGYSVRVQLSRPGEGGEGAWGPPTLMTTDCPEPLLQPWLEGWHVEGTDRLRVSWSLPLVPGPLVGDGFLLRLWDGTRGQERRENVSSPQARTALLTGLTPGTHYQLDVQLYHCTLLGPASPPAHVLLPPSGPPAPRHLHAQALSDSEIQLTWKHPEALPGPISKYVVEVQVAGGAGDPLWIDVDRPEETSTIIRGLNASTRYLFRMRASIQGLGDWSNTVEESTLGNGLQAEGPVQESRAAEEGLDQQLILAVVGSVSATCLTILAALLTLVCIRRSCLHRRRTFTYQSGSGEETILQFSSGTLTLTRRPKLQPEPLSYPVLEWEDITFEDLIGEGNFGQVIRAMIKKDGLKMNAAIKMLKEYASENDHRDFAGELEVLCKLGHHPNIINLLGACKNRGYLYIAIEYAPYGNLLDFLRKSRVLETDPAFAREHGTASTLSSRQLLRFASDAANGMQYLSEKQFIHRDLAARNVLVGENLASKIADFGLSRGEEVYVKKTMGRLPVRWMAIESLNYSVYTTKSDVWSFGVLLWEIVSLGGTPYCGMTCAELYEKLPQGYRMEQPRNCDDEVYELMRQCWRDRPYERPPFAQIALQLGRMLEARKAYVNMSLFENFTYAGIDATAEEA
UniProt Q06806, residues 23-1134: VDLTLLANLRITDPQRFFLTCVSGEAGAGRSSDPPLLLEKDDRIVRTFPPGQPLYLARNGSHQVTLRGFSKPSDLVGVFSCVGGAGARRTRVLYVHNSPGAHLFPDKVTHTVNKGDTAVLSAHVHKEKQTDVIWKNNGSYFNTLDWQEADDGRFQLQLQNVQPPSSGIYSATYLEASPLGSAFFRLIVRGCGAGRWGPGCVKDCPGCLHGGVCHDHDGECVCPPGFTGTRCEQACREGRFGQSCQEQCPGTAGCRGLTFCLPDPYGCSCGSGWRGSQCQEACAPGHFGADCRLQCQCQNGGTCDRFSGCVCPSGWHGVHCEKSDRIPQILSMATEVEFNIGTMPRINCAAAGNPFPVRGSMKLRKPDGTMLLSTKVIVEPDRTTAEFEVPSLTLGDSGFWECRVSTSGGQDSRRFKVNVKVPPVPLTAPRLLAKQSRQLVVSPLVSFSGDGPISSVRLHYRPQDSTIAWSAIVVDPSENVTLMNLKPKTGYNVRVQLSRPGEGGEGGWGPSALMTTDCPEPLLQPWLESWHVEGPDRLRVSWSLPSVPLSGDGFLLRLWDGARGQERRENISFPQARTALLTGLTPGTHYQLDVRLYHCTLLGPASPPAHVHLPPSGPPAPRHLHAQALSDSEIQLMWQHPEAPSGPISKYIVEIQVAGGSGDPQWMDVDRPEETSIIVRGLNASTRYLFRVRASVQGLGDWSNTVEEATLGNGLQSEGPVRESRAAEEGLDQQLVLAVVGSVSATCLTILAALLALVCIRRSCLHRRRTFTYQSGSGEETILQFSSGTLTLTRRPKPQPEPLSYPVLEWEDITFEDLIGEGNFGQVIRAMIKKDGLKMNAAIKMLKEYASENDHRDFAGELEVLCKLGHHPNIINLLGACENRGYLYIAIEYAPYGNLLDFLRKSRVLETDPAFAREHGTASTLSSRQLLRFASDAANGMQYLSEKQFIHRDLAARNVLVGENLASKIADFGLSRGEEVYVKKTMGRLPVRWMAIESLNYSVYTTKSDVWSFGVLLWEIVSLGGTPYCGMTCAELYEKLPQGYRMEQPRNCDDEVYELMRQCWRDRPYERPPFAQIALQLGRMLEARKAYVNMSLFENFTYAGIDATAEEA

Legend:
[1] = target: endogenous human Tie1 (primary endothelial cells HDMVEC/HDMEC, HUVEC, HMEC; human tissue sections; SW480 tumor cells) (human) (UniProt P35590); assay: IF, HDMEC
[2] = target: endogenous human Tie1 (primary endothelial cells HDMVEC/HDMEC, HUVEC, HMEC; human tissue sections; SW480 tumor cells) (human) (UniProt P35590); assay: WB, HDMEC
[3] = target: V5-tagged full length human Tie1 expressed in COS1 cells (pcDNA3-Tie1-V5) (human) (UniProt P35590); assay: WB, IP and immunofluorescence
[4] = target: endogenous human Tie1 (primary endothelial cells HDMVEC/HDMEC, HUVEC, HMEC; human tissue sections; SW480 tumor cells) (human) (UniProt P35590); assay: WB, IP and immunofluorescence
[5] = target: V5-tagged full length human Tie1 expressed in COS1 cells (pcDNA3-Tie1-V5) (human) (UniProt P35590); assay: IF, Tie1-transfected COS1 cells
[6] = target: V5-tagged full length human Tie1 expressed in COS1 cells (pcDNA3-Tie1-V5) (human) (UniProt P35590); assay: WB, Tie1-transfected COS1 cells
[7] = target: endogenous human Tie1 (primary endothelial cells HDMVEC/HDMEC, HUVEC, HMEC; human tissue sections; SW480 tumor cells) (human) (UniProt P35590); assay: immunohistochemistry, human skin and melanoma sections
[8] = target: recombinant human Tie1-Fc (extracellular domain of human Tie1 fused to human Fc) (human) (UniProt P35590); assay: SPR (BIAcore), IgG coupled to CM5 chip, Tie1/Fc as analyte
[9] = target: endogenous human Tie1 (primary endothelial cells HDMVEC/HDMEC, HUVEC, HMEC; human tissue sections; SW480 tumor cells) (human) (UniProt P35590); assay: immunohistochemistry, human lung and lung carcinoma sections
[10] = target: endogenous human Tie1 (primary endothelial cells HDMVEC/HDMEC, HUVEC, HMEC; human tissue sections; SW480 tumor cells) (human) (UniProt P35590); assay: immunohistochemistry, human kidney and hypernephroma sections
[11] = target: endogenous human Tie1 (primary endothelial cells HDMVEC/HDMEC, HUVEC, HMEC; human tissue sections; SW480 tumor cells) (human) (UniProt P35590); assay: immunohistochemistry, human breast and breast carcinoma sections
[12] = target: endogenous human Tie1 (primary endothelial cells HDMVEC/HDMEC, HUVEC, HMEC; human tissue sections; SW480 tumor cells) (human) (UniProt P35590); assay: confocal microscopy of fixed HUVEC, biotinylated antibody 10 ug/ml
[13] = target: endogenous human Tie1 (primary endothelial cells HDMVEC/HDMEC, HUVEC, HMEC; human tissue sections; SW480 tumor cells) (human) (UniProt P35590); assay: immunoprecipitation from HUVEC lysates, western blot with goat anti-Tie1
[14] = target: endogenous human Tie1 (primary endothelial cells HDMVEC/HDMEC, HUVEC, HMEC; human tissue sections; SW480 tumor cells) (human) (UniProt P35590); assay: immunohistochemistry, frozen human tissue sections, biotinylated IgG 10 ug/ml
[15] = target: endogenous human Tie1 (primary endothelial cells HDMVEC/HDMEC, HUVEC, HMEC; human tissue sections; SW480 tumor cells) (human) (UniProt P35590); assay: immunohistochemistry, formalin-fixed SW480 xenograft from mouse, biotinylated E3 IgG1 10 ug/ml
[16] = target: mouse Tie1 on mouse endothelial cells (mouse) (UniProt Q06806); assay: as above

Measured: binding

B1: E3 IgG (parental anti-Tie1 antibody E3, DX-2200) (antibody, V domains shown)
VH: EVQLLESGGGLVQPGGSLRLSCAASGFTFSMYGMVWVRQAPGKGLEWVSVISPSGGNTGYADSVKGRFTISRDNSKNTLYLQVNSLRAEDTAVYYCARAPRGYSYGYYYWGQGTLVTVSS
VL: DIQMTQSPLSLSASVGDRVTITCRASQGIGHYLAWYQQKPGKVPKLLIYTASTLQSGVPSRFSGSGSGTDFTLTINSLQPEDVATYYCQQFNSYPHTFGQGTRLDIK
binds: all assays above
